# In article PMC6638986:
# These are yes or no findings as the source states them, for the method shown. Binding seen in cells or lysates may run through a third protein. Some results given as binding are weak or reduced against the parent protein; the word gives no strength.
# Key:
# [1] = target: GFP-Hsp90 (N-terminally GFP-tagged C. albicans Hsp90) (C. albicans) (UniProt P46598); test: co-IP; GFP-Trap magnetic agarose beads on C. albicans lysates, 1 hour at 4°C, wash buffer 10 mM TrisHCl, 150 mM NaCl, 0.5 mM EDTA, pH 7.5; western immunoblot for Hsp90
# [2] = target: Hsp90^E36A-GFP (C-terminally GFP-tagged E36A trap mutant of C. albicans Hsp90) (C. albicans) (UniProt P46598); test: as above
substance,measurement,setting,value
"Hsp90 (C. albicans), endogenous, untagged (from UniProt P46598 1-707)",binding,[1],binds
same,binding,[2],binds
